Data taken from PubChem BioAssay AID720504 (National Center for Advancing Translational Sciences (NCATS), 2013).
Several values for one entry are separate records, joined by “and”; a condition that tells them apart may be missing. Equal entries are not always repeated. The campaign covered roughly 360,000 compounds. About 10,000 (2.8%) were called active. This list was built around the results that the source calls inconclusive (neither active nor inactive); the mix of calls is not that of the screen. Calls follow the shape of the dose curve; as a rule, active = well fitted inhibition curve with a large enough effect; inconclusive = small, poorly fitted or top-dose-only effect; inactive = flat fitted curve, though single readings scatter. Potencies of inconclusive entries are doubtful fits and often do not repeat.
% is scaled to controls: 0 for no effect and ±100 for the full control effect; potency is read from the fitted curve at half-maximal effect.
Also: nearly all actives have a fitted effect of over 65% in size.
For max response, negative = inhibition in this document: series mostly up to about 57 µM.

The chains behind the UniProt entries cited, without tags or fusion partners.
UniProt P53350, whole entry, looked up: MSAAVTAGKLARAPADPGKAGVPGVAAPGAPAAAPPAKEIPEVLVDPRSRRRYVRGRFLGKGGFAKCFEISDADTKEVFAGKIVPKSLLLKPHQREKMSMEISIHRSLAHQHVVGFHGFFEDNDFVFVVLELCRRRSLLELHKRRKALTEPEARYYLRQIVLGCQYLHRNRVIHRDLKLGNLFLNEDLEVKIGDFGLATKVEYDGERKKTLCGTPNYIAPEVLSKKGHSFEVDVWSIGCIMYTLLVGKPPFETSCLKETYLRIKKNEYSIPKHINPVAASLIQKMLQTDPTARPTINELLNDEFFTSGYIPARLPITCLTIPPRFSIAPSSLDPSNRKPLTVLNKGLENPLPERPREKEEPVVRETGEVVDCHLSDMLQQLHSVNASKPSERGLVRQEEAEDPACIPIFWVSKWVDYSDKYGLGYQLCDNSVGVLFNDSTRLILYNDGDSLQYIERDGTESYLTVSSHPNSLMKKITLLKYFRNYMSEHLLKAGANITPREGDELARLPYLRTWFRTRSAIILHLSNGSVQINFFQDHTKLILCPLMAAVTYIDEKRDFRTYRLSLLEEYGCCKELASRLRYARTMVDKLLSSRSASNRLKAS

What follows are compounds tested against Serine/threonine-protein kinase PLK1 (Homo sapiens) (UniProt P53350) (assay: qHTS for Inhibitors of PLK1-PDB (polo-like kinase 1 - polo-box domain): Primary Screen). Settings: Plk1 PBD binding of FITC phosphopeptide, fluorescence polarization.
For `Cc1ccc(N=Cc2sc(O)c3ccccc23)cc1`, the max response, negative = inhibition was inactive: 18.4%.
With `Cn1nc(OC(=O)Nc2ccc(F)cc2)cc1C(F)(F)F` the Potency was inconclusive: 21.2 µM [inhibitor, partial curve].
For `COc1ccc(C(=O)n2nc(-c3ccco3)nc2N)cc1`, the Potency was inconclusive: 37.7 µM [inhibitor, single point].
For `Nc1c(Br)c(=O)[nH]c(=O)n1-c1ccc(F)cc1`, the max response, negative = inhibition was inactive: -6.86%.
`Cn1c(CCC(=O)Nc2cc(S(C)(=O)=O)ccc2Cl)nc2cc(S(=O)(=O)N3CCOCC3)ccc21` was tested, and the Potency was inconclusive: 75.2 µM [inhibitor, partial curve].
`COC(=O)c1sc(NC(=O)COc2ccccc2C)nc1C` was tested, and the max response, negative = inhibition was inactive: 0.0522%.
For `O=S(=O)(Nc1nc2cc3c(cc2nc1Cl)OCCO3)c1ccccc1`, the Potency was inconclusive: 26.7 µM [inhibitor, single point].
For `Cn1c(=O)n(Cc2ccccc2)c(=O)c2c1nc1n2CCCN1CCc1ccccc1`, the max response, negative = inhibition was inactive: -11.2%.
`O=C(NC(=S)NCc1ccncc1)c1ccccc1` was tested, and the max response, negative = inhibition was inactive: -18.1%.
In the case of `N#CC1=C(N)NC(SCC(=O)c2ccccc2)=C(C#N)C12CCCC2`, the max response, negative = inhibition is reported as inactive: -29.5%.
For `COc1ccc(S(=O)(=O)Nc2nnc(C)s2)cc1`, the Potency was inconclusive: 26.7 µM [inhibitor, partial curve].
With `O=C(O)C(CCCCNS(=O)(=O)c1ccc(F)cc1)NS(=O)(=O)c1ccc(F)cc1` (stereo unspecified) the max response, negative = inhibition was inactive: 1.57% and inactive: -1.94%.
In the case of `O=C(NCc1ccccc1)c1ccc(Cl)nc1`, the Potency is reported as inconclusive: 23.8 µM [inhibitor, single point].
With `Cc1ccc(S(=O)c2ccc([N+](=O)[O-])c3nonc23)cc1` (stereo unspecified) the Potency was active: 1.5 µM.
`S=c1[nH]nc(-c2ccc(Cl)cc2)n1-c1ccc(Cl)cc1` was tested, and the max response, negative = inhibition was inconclusive: -35.1% [inhibitor].
With `COc1ccc(CCNC(=O)c2c(O)c3c([nH]c2=O)CCCC3)cc1` the max response, negative = inhibition was inactive: -6.05%.
With `C=CCC[C@H](Cc1ccc(F)cc1)C(=O)OC[C@H](Cc1c[nH]c2ccccc12)NC(=O)[C@H](CC=C)CC(=O)NCCO` the max response, negative = inhibition was inactive: 5.36%.
In the case of `Cc1ccc(OCc2nnc(SCc3cc(=O)[nH]c4ccccc34)n2-c2ccccc2)cc1`, the Potency is reported as inconclusive: 18.9 µM [inhibitor, partial curve].
With `O=C(NC1CCCCC1)c1cnn2c(C(F)(F)F)cc(-c3ccco3)nc12` the Potency was inconclusive: 21.2 µM [inhibitor, partial curve].
`O=C1OC(Sc2ccccc2)(c2ccccc2)c2ccccc21` (stereo unspecified) was tested, and the Potency was inconclusive: 26.7 µM [inhibitor, partial curve].
In the case of `CCCCN=C(NNc1ccc(Br)cc1)C(=O)OCC`, the max response, negative = inhibition is reported as inactive: -3.21%.
With `Cc1cccc(C(=O)NC(=S)Nc2ccc(S(=O)(=O)N3CCCCC3)cc2)c1` the Potency was inconclusive: 21.2 µM [inhibitor, single point].
For `NC(=S)n1[nH]c(-c2ccc([N+](=O)[O-])cc2)c(N=Nc2ccc(Cl)cc2)c1=O`, the Potency was inconclusive: 4.74 µM [inhibitor, partial curve].
`CN(C)CCCNC(=O)N1c2ccccc2C=Cc2ccccc21` was tested, and the Potency was active: 26.7 µM.
In the case of `CCCCNC(=O)n1c(=O)oc2ccc(Cl)cc21`, the Potency is reported as inconclusive: 13.4 µM [inhibitor, partial curve].
`Cc1ccc(S(=O)(=O)N2CCN(S(=O)(=O)N(C)C)CC2)cc1` was tested, and the Potency was inconclusive: 29.9 µM [inhibitor, partial curve].
`CCc1cccc(CC)c1NC(=O)c1cccc(N)c1` was tested, and the Potency was active: 21.2 µM.
For `C=CCNc1nnc(Sc2ncccc2[N+](=O)[O-])s1`, the max response, negative = inhibition was inactive: -5.36%.
With `CC(C)Oc1ccc(C(=O)CCN2CCOCC2)cc1` the Potency was inconclusive: 26.7 µM [inhibitor, single point].
With `CC1(C(=O)Nc2ccc(Cl)cc2)Cc2c(-c3ccc(C(N)=O)cc3)ccnc2O1` (stereo unspecified) the max response, negative = inhibition was inactive: 3.69%.
For `O=C(O)c1ccc2c(=O)[nH]c(CN3CCOCC3)nc2c1`, the max response, negative = inhibition was inactive: -4.1%.
For `O=C(O)CCN(Cc1ccccc1)S(=O)(=O)c1c(Cl)cccc1Cl`, the Potency was inconclusive: 15 µM [inhibitor, partial curve].
For `Cc1nnc(SCC2=C(C(=O)O)N3C(=O)C(NC(=O)Cn4nc(C(F)F)c(Cl)c4C)C3SC2)s1` (stereo unspecified), the Potency was inconclusive: 21.2 µM [inhibitor, partial curve].
With `Cc1ccc(S(=O)(=O)N2CCOCC2)cc1NC(=O)CSc1nnc(COc2ccccc2F)n1N` the max response, negative = inhibition was inactive: 1.29%.
With `CCCCN(CCCC)CCNC(=O)CN1C(=O)CSc2ccc(S(=O)(=O)N3CCCCC3)cc21` the Potency was inconclusive: 21.2 µM [inhibitor, single point].
`CC(=O)N1c2ccccc2C2(O)N=C(C)SC12` (stereo unspecified) was tested, and the Potency was active: 5.32 µM.
`CCOc1ccc2ccccc2c1C(=O)N[C@@H]1C(=O)N2[C@@H]1SC(C)(C)[C@@H]2C(=O)O` was tested, and the max response, negative = inhibition was inactive: -19% and inactive: -7.21%.
For `CCn1c(CCNC(=O)c2cccs2)nnc1SCC(=O)c1ccc(OC)cc1`, the Potency was inconclusive: 26.7 µM [inhibitor, partial curve].
In the case of `COc1cc(C(=O)Nc2nnc(CC(C)C)s2)c([N+](=O)[O-])cc1OC`, the max response, negative = inhibition is reported as inactive: -10.8%.
With `CCC1CCCCN1C(=O)Cn1c(=O)n(CCCC(=O)NCc2ccco2)c(=O)c2sccc21` (stereo unspecified) the Potency was inconclusive: 37.7 µM [inhibitor, single point].
In the case of `COc1cc(NS(=O)(=O)c2ccc(NC(=O)COc3ccccc3C)cc2)nc(OC)n1`, the Potency is reported as inconclusive: 26.7 µM [inhibitor, partial curve].
In the case of `CC1CN(C(=O)CN2C(=O)c3ccccc3S2(=O)=O)CC(C)O1` (stereo unspecified), the Potency is reported as inconclusive: 21.2 µM [inhibitor, single point].
With `NCCCNCCCCNCCCN` the max response, negative = inhibition was inactive: -0.629%.
For `O=C(N/N=C/c1ccc(-c2ccccc2C(=O)O)o1)c1cccs1`, the Potency was inconclusive: 21.2 µM [inhibitor, single point].
`CN(C)c1cccc(N(C)C)c1CNC(=O)NC(=O)c1c(F)cccc1F` was tested, and the max response, negative = inhibition was inactive: -7.72%.
In the case of `COc1cc(SC#N)ccc1N=Cc1c(C)[nH]n(-c2ccc(C)cc2)c1=O`, the Potency is reported as inconclusive: 11.9 µM [inhibitor, partial curve].
